Paper doi:10.1101/2021.09.29.462331
No constants are given. Whether binding was seen depends on the method and setting. Binding seen in cells or lysates may run through a third protein. Some binding calls cover weakened binding; strength is not graded here. Where a sequence is shown, tags or fusion partners need not be part of it.

Biological target: T1, Myc-tagged KIF4 (wild type) (human) (UniProt O95239)
T1 sequence: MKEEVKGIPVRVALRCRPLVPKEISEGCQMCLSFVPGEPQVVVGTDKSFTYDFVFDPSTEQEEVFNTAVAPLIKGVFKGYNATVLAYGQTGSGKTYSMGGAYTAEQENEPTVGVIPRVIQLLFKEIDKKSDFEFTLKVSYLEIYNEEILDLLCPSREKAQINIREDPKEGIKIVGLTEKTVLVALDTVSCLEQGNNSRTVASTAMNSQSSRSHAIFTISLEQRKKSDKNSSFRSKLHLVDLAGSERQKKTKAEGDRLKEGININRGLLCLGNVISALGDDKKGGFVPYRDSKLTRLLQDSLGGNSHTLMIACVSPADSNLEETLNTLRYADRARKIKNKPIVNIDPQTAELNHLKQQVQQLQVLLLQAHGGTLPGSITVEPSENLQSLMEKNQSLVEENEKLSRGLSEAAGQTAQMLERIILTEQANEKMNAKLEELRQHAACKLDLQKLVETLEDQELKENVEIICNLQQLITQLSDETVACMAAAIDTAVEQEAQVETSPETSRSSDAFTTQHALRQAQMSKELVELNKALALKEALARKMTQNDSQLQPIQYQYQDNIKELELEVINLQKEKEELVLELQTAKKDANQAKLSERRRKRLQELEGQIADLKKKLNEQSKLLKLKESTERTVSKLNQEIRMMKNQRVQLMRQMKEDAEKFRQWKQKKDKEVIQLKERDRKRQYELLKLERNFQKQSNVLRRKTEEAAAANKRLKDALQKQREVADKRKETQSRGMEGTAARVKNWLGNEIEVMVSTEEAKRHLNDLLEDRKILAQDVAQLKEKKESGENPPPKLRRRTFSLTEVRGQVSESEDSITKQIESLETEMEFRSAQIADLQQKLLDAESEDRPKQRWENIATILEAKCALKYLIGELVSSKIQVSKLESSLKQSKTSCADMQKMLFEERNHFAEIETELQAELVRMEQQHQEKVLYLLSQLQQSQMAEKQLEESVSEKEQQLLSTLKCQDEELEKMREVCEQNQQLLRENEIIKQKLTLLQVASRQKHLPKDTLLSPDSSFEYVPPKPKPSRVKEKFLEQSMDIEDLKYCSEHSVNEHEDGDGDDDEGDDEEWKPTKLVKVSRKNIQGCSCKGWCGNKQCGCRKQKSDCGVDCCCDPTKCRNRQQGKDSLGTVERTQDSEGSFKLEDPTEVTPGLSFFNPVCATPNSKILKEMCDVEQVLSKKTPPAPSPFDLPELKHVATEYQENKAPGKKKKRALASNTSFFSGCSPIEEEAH
Assay: co-IP

B1: HA-tagged NTCP (receptor, UniProt Q14973 1-349)
chain: MEAHNASAPFNFTLPPNFGKRPTDLALSVILVFMLFFIMLSLGCTMEFSKIKAHLWKPKGLAIALVAQYGIMPLTAFVLGKVFRLKNIEALAILVCGCSPGGNLSNVFSLAMKGDMNLSIVMTTCSTFCALGMMPLLLYIYSRGIYDGDLKDKVPYKGIVISLVLVLIPCTIGIVLKSKRPQYMRYVIKGGMIIILLCSVAVTVLSAINVGKSIMFAMTPLLIATSSLMPFIGFLLGYVLSALFCLNGRCRRTVSMETGCQNVQLCSTILNVAFPPEVIGPLFFFPLLYMIFQLGEGLLLIAIFWCYEKFKTPKDKTKMIYTAATTEETIPGALGNGTYKGEDCSPCTA
For B1, the binding was “binds”.
